# Source: the supplement of paper PMC3047530
# This is one part of the list. Repeats are few or missing, and single values can be far off.
# Tested on: Geomyces destructans
# Assay: growth inhibition relative to DMSO control; higher = stronger growth inhibition
# Settings: 10 µM; 15 °C; incubation time 10 days
row,SMILES,growth inhibition [%]
1,Cc1cc(O)cc(O)c1C(=O)O,2.91
2,CC(C)(C)NCC(O)COc1cccc2c1CC(O)C(O)C2 (centres undefined),-7.83
3,Oc1ccc2c(c1)O[C@H](c1ccc(O)c(O)c1)[C@@H](O)C2,5.43
4,COC(=O)C[C@H]1C(C)(C)C(=O)[C@@H]2CC3C4=CC(=O)O[C@@H](c5ccoc5)[C@]4(C)CC[C@@H]3[C@@]1(C)C2=O (some centres undefined),-8.7
5,CC(C)=CC1C(C(=O)O)C1(C)C (centres undefined),3.4
6,COc1ccc2cc3[n+](cc2c1OC)CCc1cc2c(cc1-3)OCO2,-13.8
7,COc1ccc2c(c1)CC[C@@H]1[C@@H]2CC[C@]2(C)[C@@H](O)[C@H](O)C[C@@H]12,-3.82
8,COc1ccc2c(c1)OC[C@@H](Cc1ccc(OC)c(OC)c1)[C@@H]2O,-25.3
9,Cc1c2oc3c(C)ccc(C(=O)N[C@@H]4C(=O)N[C@H](C(C)C)C(=O)N5CCC[C@H]5C(=O)N(C)CC(=O)N(C)[C@@H](C(C)C)C(=O)O[C@@H]4C)c3nc-2c(C(=O)N[C@@H]2C(=O)N[C@H](C(C)C)C(=O)N3CCC[C@H]3C(=O)N(C)CC(=O)N(C)[C@@H](C(C)C)C(=O)O[C@@H]2C)c(N)c1=O,-27.8
10,COc1ccc2c(c1)c(CC(=O)OCC(=O)O)c(C)n2C(=O)c1ccc(Cl)cc1,-17.5
11,O=C1C(O)=C(O)C(=O)C(O)=C1O,-9.95
12,CC(=O)/N=c1/sc(S(N)(=O)=O)nn1C,-2.37
13,CC1=CC(=O)c2ccccc2C1=O,-23.1
14,C#C[C@]1(OC(C)=O)CC[C@H]2[C@@H]3CCC4=CC(=O)CC[C@@H]4[C@H]3CC[C@@]21C,-12.6
15,COc1ccccc1-c1cc(=O)c2cccc(OC)c2o1,17.6
16,CCCCC1C(=O)N(c2ccccc2)N(c2ccccc2)C1=O,-9.69
17,O=C(O)/C=C/C=C/c1ccccc1,64.3
18,CCCCC[C@@H](O)[C@H]1C(=O)O[C@H](C)[C@@H](O)/C=C/C=C/C=C/C=C/C=C(\C)[C@@H](O)C[C@H](O)C[C@H](O)C[C@H](O)C[C@H](O)C[C@H](O)C[C@@H]1O,-31.6
19,OC[C@H]1O[C@@H](O[C@@H]2OC=C[C@H]3[C@H](O)[C@@H]4O[C@]4(CO)[C@@H]23)[C@H](O)[C@@H](O)[C@@H]1O,-2.83
20,O=C(CCCCC(=O)Nc1c(I)cc(I)c(C(=O)O)c1I)Nc1c(I)cc(I)c(C(=O)O)c1I,-16.9
21,CCC(=O)c1ccc2c(c1)N(CC(C)N(C)C)c1ccccc1S2 (centres undefined),-27.6
22,Cc1ccc(C(=O)C(C)CN2CCCCC2)cc1 (centres undefined),-6.06
23,COc1cc(C(C)=O)cc(OC)c1O,-8.81
24,CC(C)=CCC/C(C)=C\CO,-33.8
25,CC(Cc1ccc(O)c(O)c1)C(C)Cc1ccc(O)c(O)c1 (centres undefined),0.774
26,C#CC1(O)CC[C@H]2[C@@H]3CCC4=CC(=O)CC[C@@H]4[C@H]3CC[C@@]21CC (mixture of isomers),-16.4
27,CC(=O)OCC(=O)[C@@]12OC3(CCCC3)O[C@@H]1C[C@H]1[C@@H]3CCC4=CC(=O)C=C[C@]4(C)[C@@]3(F)[C@@H](O)C[C@@]12C,-8.36

row,SMILES,growth inhibition [%]
1,C[C@@H]1O[C@@H](O[C@H]2[C@H](Oc3cc(O)c4c(c3)O[C@H](c3ccc(O)cc3)CC4=O)O[C@H](CO)[C@@H](O)[C@@H]2O)[C@H](O)[C@H](O)[C@H]1O,-23.1
2,COc1cc2c(cc1OC)Cc1cc(OC)c(OC)cc1Cc1cc(OC)c(OC)cc1C2,-3.14
3,COc1c(O)cc(O)cc1O,-7.85
4,C[C@H](CCC(=O)O)[C@H]1CC[C@H]2[C@@H]3C[C@H](O)[C@@H]4C[C@H](O)CC[C@]4(C)[C@H]3CC[C@]12C [alpha-HYODEOXYCHOLIC ACID],-14.6
5,CC(=O)Nc1ccc(OCC(O)CNC(C)C)cc1 (centres undefined),-14.1
6,CN1[C@@H]2CC[C@H]1C[C@@H](OC(c1ccccc1)c1ccccc1)C2,17.9
7,C[C@@H]1O[C@@H](OC[C@H]2O[C@@H](Oc3c(-c4ccc(O)c(O)c4)oc4cc(O)cc(O)c4c3=O)[C@H](O)[C@@H](O)[C@@H]2O)[C@H](O)[C@H](O)[C@H]1O [RUTOSIDE  (rutin)],-7.02
8,CCCC(=O)Nc1ccc(OCC(O)CNC(C)C)c(C(C)=O)c1 (centres undefined),-28.7
9,COc1ccc(Cl)cc1C(=O)NCCc1ccc(S(=O)(=O)NC(=O)NC2CCCCC2)cc1,-20.8
10,CC(C)=CCC1=C(O)C(=O)c2ccccc2C1=O,-31.4
11,CCCOc1ccccc1-c1nc2[nH]nnc2c(=O)[nH]1,-6.7
12,CN(C(=O)CN(CCO)CC(=O)N(C)C(C)(C)Cc1ccccc1)C(C)(C)Cc1ccccc1,-4.14
13,CC1(C)O[C@@H]2C[C@H]3[C@@H]4C[C@H](F)C5=CC(=O)C=C[C@]5(C)[C@@]4(F)[C@@H](O)C[C@]3(C)[C@]2(C(=O)CO)O1,-4.5
14,CC(C)=CCc1c2c(c3occ(-c4ccc(O)c(O)c4)c(=O)c3c1O)C=CC(C)(C)O2,0.0912
15,COc1cc(NS(=O)(=O)c2ccc(N)cc2)ncn1,-12.5
16,Cc1cc(C)nc(NS(=O)(=O)c2ccc(N)cc2)n1,-1.42
17,NCCC(=O)N[C@@H](Cc1c[nH]cn1)C(=O)O,-5.33
18,COC(=O)c1c(C)c2c(c(C)c1OC)OC(=O)c1c(C)c(Cl)c(OC)c(Cl)c1O2,-3.93
19,NC[C@H]1O[C@H](O[C@H]2[C@H](O)[C@@H](O[C@H]3O[C@H](CO)[C@@H](O)[C@H](N)[C@H]3O)[C@H](N)C[C@@H]2N)[C@H](N)C[C@@H]1O,-17.6
20,COc1c(Cl)ccc(Cl)c1C(=O)O,-5.76
21,COc1ccc2c(=O)c(-c3ccc(O[C@@H]4O[C@H](CO)[C@@H](O)[C@H](O)[C@H]4O)cc3)coc2c1,4.79
22,CC(=O)Nc1ccc(OC(=O)c2ccccc2O)cc1,-9.26
23,COC(=O)C[C@H]1C2(C)CC34OC5(C)O[C@@]6([C@H](OC(C)=O)C(OC(C)=O)[C@]7(C)C(/C(=C(/O)C(C)C)C(=O)O[C@H]7c7ccoc7)[C@@]6(O5)[C@H](OC(C)=O)[C@@]3(O)C2OC(=O)C(C)C)[C@]14C (some centres undefined),-16.6
24,COc1cc(OC)c2ccc(=O)oc2c1,-28.2
25,O=C(CCBr)N1CCN(C(=O)CCBr)CC1,-8.15
26,CCCCC1C(=O)N(c2ccccc2)N(c2ccc(O)cc2)C1=O (centres undefined),-29.2
27,CC(=O)O[C@@H]1CC(=O)[C@@]2(C)C(CC(=O)[C@]3(C)C2CC[C@@]2(C)[C@H](c4ccoc4)OC(=O)C4OC423)C1(C)C (some centres undefined),-5.07

# Part of the list above in order of number of heavy atoms, rising.
row,SMILES,growth inhibition [%]
13,CC1(C)O[C@@H]2C[C@H]3[C@@H]4C[C@H](F)C5=CC(=O)C=C[C@]5(C)[C@@]4(F)[C@@H](O)C[C@]3(C)[C@]2(C(=O)CO)O1,-4.5
9,COc1ccc(Cl)cc1C(=O)NCCc1ccc(S(=O)(=O)NC(=O)NC2CCCCC2)cc1,-20.8
1,C[C@@H]1O[C@@H](O[C@H]2[C@H](Oc3cc(O)c4c(c3)O[C@H](c3ccc(O)cc3)CC4=O)O[C@H](CO)[C@@H](O)[C@@H]2O)[C@H](O)[C@H](O)[C@H]1O,-23.1
